Assay results from patent US20140228349A1, “5,7-SUBSTITUTED-IMIDAZO[1,2-C]PYRIMIDINES” (Array BioPharma Inc., priority 2011, published 2014).
For at least one compound, name, drawing or mass did not settle the structure.

Test system: Tyk2, JAK1, JAK2 and JAK3
Assay: in vitro assays (Examples A, B, C and D) taken together
Assay type: biochemical
Details: Reference Examples; statement in words
From the text: The assays described in Examples A, B, C and D for the determination of Tyk2, JAK1, JAK2 and JAK3 kinase activity, respectively, utilized the Omnia® Kinase fluorescence peptide substrate-based technology (Invitrogen). The specific components of the assay mixture are described in Examples A, B, C and D. In these assays, Mg^2+ is chelated upon phosphorylation of the Omnia peptide by the kinase to form a bridge between the chelation-enhanced fluorophore Sox and the phosphate, resulting in an increase in fluorescence emission at 485 nm when excited at […]. The reactions were therefore read at excitation 360 nm and emission was measured at 485 nm every 50 seconds for 45 minutes using a PerkinElmer EnVision Multilabel Plate Reader.
The final buffer conditions for Tyk2, JAK1, JAK2, and JAK3 assays were as follows: 25 mM HEPES, pH 7.4, 10 mM MgCl2, 0.01% Triton X-100 and 1 mM DTT.
Compounds were prepared at 50× the final concentration in DMSO by conducting 3-fold serial dilutions from a 500-μM intermediate dilution to give a 10-point dosing curve having a high dose of 10 μM. Two-μL aliquots of these were transferred to a fresh plate for a ten-fold intermediate dilution with assay buffer. […] For each plate, percent of control (POC) values were calculated for each well according to the following equation: […]

## CC(=O)N1CC(CCF)(n2cc(-c3nc(-c4cnn(C)c4)cc4nccn34)cn2)C1 [Example 96, 1-(3-(2-fluoroethyl)-3-(4-(7-(1-methyl-1H-pyrazol-4-yl)imidazo[1,2-c]pyrimidin-5-yl)-1H-pyrazol-1-yl)azetidin-1-yl)ethanone]
  activity in the in vitro assays: weakly active
